In US7833685B2, “Coloring compound and yellow toner containing the coloring compound” (Canon Kabushiki Kaisha, priority 2006, dated 2010):
Some entries repeat one wording, which the source may state once for all of them.

experiment: Evaluation of coloring compound for color tone (chroma c*); assay type: physicochemical; conditions: c* at L*=88, on CLC color copy paper

Row | Structure (SMILES) | Color tone
1 | CCCCC(CC)CN(CC(CC)CCCC)C(=O)c1ccccc1/N=N/c1c(O)[nH]c(=O)c(C#N)c1C (stereo not shown) [D1] | A (c* is 80 or more)
2 | CCCCC(CC)CN(CC(CC)CCCC)C(=O)c1ccccc1N=Nc1c(O)[nH]c(=O)c(C#N)c1-c1ccccc1 (stereo not shown) [D2] | A (c* is 80 or more)
3 | CCCCCCN(CCCCCC)C(=O)c1ccccc1N=Nc1c(O)[nH]c(=O)c(C#N)c1C [D3] | A (c* is 80 or more)
4 | CCCCCCCCCCCCN(CCCCCCCCCCCC)C(=O)c1ccccc1N=Nc1c(O)[nH]c(=O)c(C#N)c1C [D4] | A (c* is 80 or more)
5 | CCCCCCCCCCCCN(CCCCCCCCCCCC)C(=O)c1cc(Cl)ccc1N=Nc1c(O)[nH]c(=O)c(C#N)c1C [D5] | A (c* is 80 or more)
6 | CCCCc1c(N=Nc2ccc(C)cc2C(=O)OCC(CC)CCCC)c(O)[nH]c(=O)c1C#N (stereo not shown) [D6] | A (c* is 80 or more)
7 | CCCCC(CC)CN(CC(CC)CCCC)C(=O)c1ccccc1N=Nc1c(C)cc(=O)[nH]c1O (stereo not shown) [D7] | A (c* is 80 or more)
8 | CCCCCCCCc1ccc(OC(=O)c2ccccc2N=Nc2c(O)[nH]c(=O)c(C#N)c2C)cc1 [D8] | A (c* is 80 or more)
9 | CCCCc1c(N=Nc2ccc(OC)cc2C(=O)OC(c2ccccc2)c2ccccc2)c(O)[nH]c(=O)c1C#N [D10] | A (c* is 80 or more)
10 | Cc1c(N=Nc2ccccc2C(=O)N(Cc2ccccc2)Cc2ccccc2)c(O)[nH]c(=O)c1C#N [D11] | A (c* is 80 or more)
11 | Cc1c(N=Nc2ccccc2C(=O)N(c2ccccc2)c2ccccc2)c(O)[nH]c(=O)c1C#N [D12] | A (c* is 80 or more)
12 | CCCCC(CC)CN(CC(CC)CCCC)C(=O)c1ccccc1N=Nc1c(O)[nH]c(=O)c(C(N)=O)c1C (stereo not shown) [D14] | A (c* is 80 or more)
13 | CCCCc1c(N=Nc2ccccc2C(=O)NCC(CC)CCCC)c(O)[nH]c(=O)c1C#N (stereo not shown) [D15] | B (c* is 75 or more and less than 80)
14 | CCCCc1c(N=Nc2ccccc2C(=O)N2CCC(CCC)CC2)c(O)[nH]c(=O)c1C#N [D16] | A (c* is 80 or more)
15 | CCCCc1ccc(N=Nc2c(O)[nH]c(=O)c(C#N)c2C)cc1 [E1, reference compound] | C (c* is less than 75)
16 | CCCCn1c(O)c(N=Nc2ccc(Cl)cc2)c(C)c(C#N)c1=O [E2, reference compound] | B (c* is 75 or more and less than 80)
17 | CCCCC(CC)CNS(=O)(=O)c1ccc(N=Nc2c(C)c(C#N)c(=O)n(CCCC)c2O)cc1 (stereo not shown) [E3, reference compound] | A (c* is 80 or more)
18 | Cc1c(N=Nc2ccc(N(C)C)cc2)c(O)n(CCCl)c(=O)c1C#N [E4, reference compound] | C (c* is less than 75)
19 | CCCCn1c(O)c(N=Nc2ccc(C(=O)OC)cc2)c(C)c(C#N)c1=O [E5, reference compound] | B (c* is 75 or more and less than 80)
20 | CCCCC(CC)CN(CC(CC)CCCC)C(=O)c1ccc(N=Nc2c(C)c(C#N)c(=O)n(CC)c2O)cc1 (stereo not shown) [E6, reference compound] | A (c* is 80 or more)
21 | CCCCn1c(O)c(N=Nc2cccc(C)c2)c(C)c(C#N)c1=O [E7, reference compound] | C (c* is less than 75)
22 | CCCCn1c(O)c(N=Nc2ccccc2[N+](=O)[O-])c(C)c(C#N)c1=O [E8, reference compound] | C (c* is less than 75)
23 | CCCCC(CC)CN(CC(CC)CCCC)C(=O)c1cccc(N=Nc2c(O)[nH]c(=O)c(C#N)c2C)c1 (stereo not shown) [E9, reference compound] | A (c* is 80 or more)
24 | CCCCC(CC)CN(CC(CC)CCCC)C(=O)c1ccc(N=Nc2c(O)[nH]c(=O)c(C#N)c2C)cc1 (stereo not shown) [E10, reference compound] | C (c* is less than 75)
25 | CCCCC(CC)CN(CC(CC)CCCC)C(=O)c1ccccc1N=Nc1c(C)c(C#N)c(=O)n(CC)c1O (stereo not shown) [E11, reference compound] | A (c* is 80 or more)
